Where “and” joins values, the source holds several entries; their conditions need not be identical. Identical values can stand only once. For some of these results: At least one read-out could not be matched to a standard name with certainty. Some results were stated once for a whole list of compounds, not compound by compound.
What was measured:
KB-8-5 (MDR1+) = assay: Cell survival assay (SRB), KB-8-5 (MDR1+)
KB-V1 (MDR1++) = assay: Cell survival assay (SRB), KB-V1 (MDR1++)
[1] = system: human carcinoma xenografts; assay: Growth of tumors in nude mice, several xenograft models and tolerated dose; assay type: in vivo
Excerpt: 2.4. Growth of Tumors in Nude Mice.

Compound | Ratio KB85/KB (KB-8-5 (MDR1+)) | Ratio KBV1/KB (KB-V1 (MDR1++)) | lethal dose [1]
CN[C@H](C(=O)N[C@H](C(=O)N(C)[C@H](/C=C(\C)C(=O)O)C(C)C)C(C)(C)C)C(C)(C)c1ccc(-c2ccccc2)cc1 [Example 44, 4-phenyl-N,β,β-trimethyl-L-phenylalanyl-N^1-[(1S,2E)-3-carboxy-1-isopropyl-2-butenyl]-N^1,3-dimethyl-L-valinamide] | 2.0 and 2.1 | 60.5 and 55.1 | 
CC(=O)O[C@H]1C(=O)[C@@]2(C)[C@H]([C@H](OC(=O)c3ccccc3)[C@]3(O)C[C@H](OC(=O)[C@H](O)[C@@H](NC(=O)c4ccccc4)c4ccccc4)C(C)=C1C3(C)C)[C@]1(OC(C)=O)CO[C@@H]1C[C@@H]2O [paclitaxel, reference compound] |  |  | > 1.5 ×MTD
CC[C@]1(O)C[C@H]2CN(CCc3c([nH]c4ccccc34)[C@@](C(=O)OC)(c3cc4c(cc3OC)N(C=O)[C@H]3[C@@](O)(C(=O)OC)[C@H](OC(C)=O)[C@]5(CC)C=CCN6CC[C@]43[C@@H]65)C2)C1 [vincristine] |  |  | > 1.5 ×MTD

— patent publication US20040121965A1, “Method of treating resistant tumors” (Wyeth Holdings Corporation, priority 2002, published 2004)
